No constants are given. Whether binding was seen depends on the method and setting. In cells and extracts the contact can be indirect. For some assays here: Binding can be weak; no strength is given.
Assays:
Test in all cases: co-IP; purified proteins: hPEPD, an hPEPD mutant or mSRC at 40 nM incubated with a coagulation factor, FXII or an FXII mutant at 0.5 μM in PBS, 100 μl, 2 h at 37°C; then a specific primary antibody at 4°C overnight, IP by protein G-agarose, IB; both purified
[1] = target: human coagulation factor XII (purchased, not His-tagged) (human)
[2] = target: human coagulation factor XI (human)
[3] = target: human high molecular weight kininogen (human)
[4] = target: human prekallikrein (human)

Row | binding [1] | Binder | binding [2] | binding [3] | binding [4]
1 | binds | recombinant human prolidase (peptidase D, PEPD) (enzyme, UniProt P12955 1-493) MAAATGPSFWLGNETLKVPLALFALNRQRLCERLRKNPAVQAGSIVVLQGGEETQRYCTDTGVLFRQESFFHWAFGVTEPGCYGVIDVDTGKSTLFVPRLPASHATWMGKIHSKEHFKEKYAVDDVQYVDEIASVLTSQKPSVLLTLRGVNTDSGSVCREASFDGISKFEVNNTILHPEIVECRVFKTDMELEVLRYTNKISSEAHREVMKAVKVGMKEYELESLFEHYCYSRGGMRHSSYTCICGSGENSAVLHYGHAGAPNDRTIQNGDMCLFDMGGEYYCFASDITCSFPANGKFTADQKAVYEAVLRSSRAVMGAMKPGVWWPDMHRLADRIHLEELAHMGILSGSVDAMVQAHLGAVFMPHGLGHFLGIDVHDVGGYPEGVERIDEPGLRSLRTARHLQPGMVLTVEPGIYFIDHLLDEALADPARASFLNREVLQRFRGFGGVRIEEDVVVTDSGIELLTCVPRTVEEIEACMAGCDKAFTPFSGPK | no binding (tested: hPEPD 40 nM, coagulation factor 0.5 μM) | no binding (tested: hPEPD 40 nM, coagulation factor 0.5 μM) | no binding (tested: hPEPD 40 nM, coagulation factor 0.5 μM)
2 | binds | 278G>D-hPEPD (enzyme, UniProt P12955 1-493) MAAATGPSFWLGNETLKVPLALFALNRQRLCERLRKNPAVQAGSIVVLQGGEETQRYCTDTGVLFRQESFFHWAFGVTEPGCYGVIDVDTGKSTLFVPRLPASHATWMGKIHSKEHFKEKYAVDDVQYVDEIASVLTSQKPSVLLTLRGVNTDSGSVCREASFDGISKFEVNNTILHPEIVECRVFKTDMELEVLRYTNKISSEAHREVMKAVKVGMKEYELESLFEHYCYSRGGMRHSSYTCICGSGENSAVLHYGHAGAPNDRTIQNGDMCLFDMDGEYYCFASDITCSFPANGKFTADQKAVYEAVLRSSRAVMGAMKPGVWWPDMHRLADRIHLEELAHMGILSGSVDAMVQAHLGAVFMPHGLGHFLGIDVHDVGGYPEGVERIDEPGLRSLRTARHLQPGMVLTVEPGIYFIDHLLDEALADPARASFLNREVLQRFRGFGGVRIEEDVVVTDSGIELLTCVPRTVEEIEACMAGCDKAFTPFSGPK |  |  | 

Second part, the binder before the results:

Row | Binder | binding [1] | binding [2] | binding [3] | binding [4]
3 | 266T-493Kdel-hPEPD (domain or fragment, UniProt P12955 1-265) MAAATGPSFWLGNETLKVPLALFALNRQRLCERLRKNPAVQAGSIVVLQGGEETQRYCTDTGVLFRQESFFHWAFGVTEPGCYGVIDVDTGKSTLFVPRLPASHATWMGKIHSKEHFKEKYAVDDVQYVDEIASVLTSQKPSVLLTLRGVNTDSGSVCREASFDGISKFEVNNTILHPEIVECRVFKTDMELEVLRYTNKISSEAHREVMKAVKVGMKEYELESLFEHYCYSRGGMRHSSYTCICGSGENSAVLHYGHAGAPNDR | no binding (tested: mutant 40 nM, FXII 0.5 μM) |  |  | 
4 | 1M-265Rdel-hPEPD (domain or fragment, UniProt P12955 266-493) TIQNGDMCLFDMGGEYYCFASDITCSFPANGKFTADQKAVYEAVLRSSRAVMGAMKPGVWWPDMHRLADRIHLEELAHMGILSGSVDAMVQAHLGAVFMPHGLGHFLGIDVHDVGGYPEGVERIDEPGLRSLRTARHLQPGMVLTVEPGIYFIDHLLDEALADPARASFLNREVLQRFRGFGGVRIEEDVVVTDSGIELLTCVPRTVEEIEACMAGCDKAFTPFSGPK | binds |  |  | 
5 | 185V-493Kdel-hPEPD (domain or fragment, UniProt P12955 1-184) MAAATGPSFWLGNETLKVPLALFALNRQRLCERLRKNPAVQAGSIVVLQGGEETQRYCTDTGVLFRQESFFHWAFGVTEPGCYGVIDVDTGKSTLFVPRLPASHATWMGKIHSKEHFKEKYAVDDVQYVDEIASVLTSQKPSVLLTLRGVNTDSGSVCREASFDGISKFEVNNTILHPEIVECR | no binding (tested: mutant 40 nM, FXII 0.5 μM) |  |  | 

From PMC5173032
